The assay deals with Rok1 (pGBKT7-Rok1) (Ustilago maydis). Kind of assay: two-hybrid; Matchmaker 3 (Clontech), yeast AH109; pGBKT7-Rok1 with pGADT7-Kpp2 or pGADT7-Kpp6; spotted on SD without Leu/Trp and SD without Ade/His/Leu/Trp.

No constants are given. Whether binding was seen depends on the method and setting. Binding can be weak; no strength is given.

Regarding “Kpp6 (pGADT7-Kpp6) (from UniProt A0A0D1E5Y2) (enzyme)”, the binding entry is on record as “binds”.

Values taken from article PMC6918084.
